## Primary screen of a compound library

Sequences of proteins named here, by UniProt entry; tags and fusion partners are left off.
UniProt I6X8D2, whole entry: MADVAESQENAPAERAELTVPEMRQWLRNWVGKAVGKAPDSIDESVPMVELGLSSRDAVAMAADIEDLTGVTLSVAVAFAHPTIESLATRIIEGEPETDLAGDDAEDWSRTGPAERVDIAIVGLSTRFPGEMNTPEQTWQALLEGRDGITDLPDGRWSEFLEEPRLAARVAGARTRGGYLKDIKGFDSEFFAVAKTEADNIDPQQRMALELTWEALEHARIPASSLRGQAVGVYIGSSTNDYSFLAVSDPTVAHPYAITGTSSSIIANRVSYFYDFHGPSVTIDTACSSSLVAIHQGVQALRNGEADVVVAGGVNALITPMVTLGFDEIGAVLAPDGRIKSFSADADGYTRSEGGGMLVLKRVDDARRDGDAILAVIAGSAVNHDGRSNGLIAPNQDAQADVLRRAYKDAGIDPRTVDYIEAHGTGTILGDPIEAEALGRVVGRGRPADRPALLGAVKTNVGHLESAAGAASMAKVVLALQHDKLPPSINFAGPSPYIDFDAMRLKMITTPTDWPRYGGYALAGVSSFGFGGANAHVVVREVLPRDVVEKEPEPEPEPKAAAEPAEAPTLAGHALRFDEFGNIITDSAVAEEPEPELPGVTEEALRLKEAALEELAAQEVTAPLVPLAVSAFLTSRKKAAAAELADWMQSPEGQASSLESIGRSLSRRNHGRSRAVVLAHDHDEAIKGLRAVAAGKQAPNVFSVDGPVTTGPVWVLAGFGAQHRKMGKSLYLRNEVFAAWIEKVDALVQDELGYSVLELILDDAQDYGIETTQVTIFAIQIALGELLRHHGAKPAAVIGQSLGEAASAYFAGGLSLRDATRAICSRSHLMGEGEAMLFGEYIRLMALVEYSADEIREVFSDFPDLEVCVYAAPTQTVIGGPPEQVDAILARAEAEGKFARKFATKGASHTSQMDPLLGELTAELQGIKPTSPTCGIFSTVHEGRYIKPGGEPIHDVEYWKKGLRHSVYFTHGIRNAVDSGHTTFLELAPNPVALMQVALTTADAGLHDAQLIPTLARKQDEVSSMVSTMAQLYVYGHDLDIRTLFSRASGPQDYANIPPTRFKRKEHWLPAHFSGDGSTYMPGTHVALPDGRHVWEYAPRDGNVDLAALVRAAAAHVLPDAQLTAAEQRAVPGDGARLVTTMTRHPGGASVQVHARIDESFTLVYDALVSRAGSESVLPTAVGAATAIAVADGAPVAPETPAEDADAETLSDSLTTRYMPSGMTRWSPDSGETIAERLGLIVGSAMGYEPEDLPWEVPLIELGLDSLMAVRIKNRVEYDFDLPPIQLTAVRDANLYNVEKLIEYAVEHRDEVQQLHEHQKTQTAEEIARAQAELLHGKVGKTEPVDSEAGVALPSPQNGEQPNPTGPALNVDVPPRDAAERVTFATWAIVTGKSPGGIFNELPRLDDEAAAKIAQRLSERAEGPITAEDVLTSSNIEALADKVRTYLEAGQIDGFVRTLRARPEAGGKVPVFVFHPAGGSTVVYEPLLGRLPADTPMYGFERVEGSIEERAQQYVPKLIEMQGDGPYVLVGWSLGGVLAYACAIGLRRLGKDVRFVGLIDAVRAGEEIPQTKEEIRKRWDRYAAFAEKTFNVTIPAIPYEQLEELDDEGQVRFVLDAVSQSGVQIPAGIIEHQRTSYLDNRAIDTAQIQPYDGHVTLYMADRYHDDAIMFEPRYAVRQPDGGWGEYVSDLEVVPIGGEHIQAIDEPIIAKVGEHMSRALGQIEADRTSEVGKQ
UniProt P9WNZ1, whole entry: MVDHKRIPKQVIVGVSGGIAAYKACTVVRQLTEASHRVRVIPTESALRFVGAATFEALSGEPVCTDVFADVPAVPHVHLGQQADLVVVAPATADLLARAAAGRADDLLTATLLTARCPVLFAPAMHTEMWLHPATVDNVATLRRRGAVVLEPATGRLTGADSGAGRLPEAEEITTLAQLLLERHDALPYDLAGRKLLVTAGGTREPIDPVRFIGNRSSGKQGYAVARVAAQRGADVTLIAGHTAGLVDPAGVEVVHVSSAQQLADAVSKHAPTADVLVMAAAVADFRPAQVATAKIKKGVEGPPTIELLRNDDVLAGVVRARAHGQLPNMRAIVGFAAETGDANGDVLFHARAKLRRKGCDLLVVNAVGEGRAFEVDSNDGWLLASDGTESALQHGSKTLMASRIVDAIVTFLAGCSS
UniProt P9WPC5, whole entry: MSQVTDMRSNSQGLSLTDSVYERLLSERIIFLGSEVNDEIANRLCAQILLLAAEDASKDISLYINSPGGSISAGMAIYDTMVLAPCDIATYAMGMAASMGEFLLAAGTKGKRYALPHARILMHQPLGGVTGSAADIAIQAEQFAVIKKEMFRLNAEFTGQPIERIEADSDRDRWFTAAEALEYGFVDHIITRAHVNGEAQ
UniProt P9WPC3, whole entry partner: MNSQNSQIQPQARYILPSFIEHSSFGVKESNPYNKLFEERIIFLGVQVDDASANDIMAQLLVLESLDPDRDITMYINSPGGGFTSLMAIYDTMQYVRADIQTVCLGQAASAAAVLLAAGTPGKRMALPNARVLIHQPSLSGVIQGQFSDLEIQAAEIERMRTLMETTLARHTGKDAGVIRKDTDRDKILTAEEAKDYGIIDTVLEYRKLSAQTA
UniProt P9WFT3, whole entry: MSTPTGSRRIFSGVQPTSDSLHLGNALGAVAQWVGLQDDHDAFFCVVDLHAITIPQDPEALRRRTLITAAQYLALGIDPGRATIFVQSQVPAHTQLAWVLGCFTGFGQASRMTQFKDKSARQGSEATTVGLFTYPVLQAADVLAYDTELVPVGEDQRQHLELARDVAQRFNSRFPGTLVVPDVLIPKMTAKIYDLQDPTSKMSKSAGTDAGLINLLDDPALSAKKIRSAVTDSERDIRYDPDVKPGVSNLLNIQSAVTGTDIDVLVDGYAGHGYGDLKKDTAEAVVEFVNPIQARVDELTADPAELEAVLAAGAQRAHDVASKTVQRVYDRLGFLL

From ChEMBL document CHEMBL3988442, “University of Dundee, Small-Polar-MMV Screening Library” (2021).

The filed quantity is “Percent Effect” (%). How 0% and 100% were set is not recorded. Most values in the screen are low, and negative values occur. Compounds were drawn at random from those tested, without regard to their results. A dash means the value is not listed here; it may have been measured.

Pks13 thioesterase: 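Enzyme assay of the thioesterase domain of polyketide synthase 13; the read-out is not stated. Target: Polyketide synthase Pks13, Mycobacterium tuberculosis (UniProt I6X8D2). Tested at 30 µM. Higher reads as stronger inhibition (inferred from which compounds were picked for retests). Size under these conditions: about 67,000 compounds, about 300 of them at 50% or above in at least one test.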
Toxoplasma: 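Assay of Toxoplasma gondii numbers, read through their beta-galactosidase reporter with a colour substrate. Concentration: 10 µM. The record gives no direction; the compounds picked for IC50 retests had high values, so higher reads as fewer parasites. Of about 67,000 compounds tested this way, about 260 (0.38%) reached 50% or more in at least one test.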
CoaBC: 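Coenzyme A biosynthesis protein CoaBC, Mycobacterium tuberculosis (UniProt P9WNZ1). Enzyme assay of CoaBC with a phosphate dye (Biomol Green) read at 650 nm. Concentration: 30 µM. Direction is inferred from only a few compounds that gave an IC50; most scored high, so higher reads as stronger inhibition. Most strong results did not repeat in a second test. About 67,000 compounds were tested under these conditions; 0.06% (about 40) showed 50% or more at least once.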
ClpP1P2: 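ClpP1P2, Mycobacterium tuberculosis (UniProt P9WPC5 and UniProt P9WPC3). Protease assay of ClpP1P2, read by the AMC dye that it sets free. Concentration: 50 µM. Higher reads as stronger inhibition, judged from the few compounds that gave an IC50. Most other retested compounds had strongly negative values. Size under these conditions: about 69,000 compounds, about 10 of them at 50% or above in at least one test.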
Leishmania in macrophages: 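Cell assay of Leishmania donovani living inside macrophages; the read-out is not stated. Tested at 30 µM. Higher reads as stronger inhibition (inferred: compounds with an IC50 in retests scored well above the rest). Size under these conditions: about 69,000 compounds, about 1,000 of them at 50% or above in at least one test.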
MtTrpRS: 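Enzyme assay of tryptophanyl-tRNA synthetase; the read-out is not stated. Target: Tryptophan-tRNA ligase, Mycobacterium tuberculosis (UniProt P9WFT3). Tested at 10 µM. Direction is not recorded; retested compounds ran higher, which suggests that high means inhibition. Of about 65,000 compounds tested this way, about 64 (0.098%) reached 50% or more in at least one test.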

SMILES | Pks13 thioesterase | Toxoplasma | CoaBC | ClpP1P2 | Leishmania in macrophages | MtTrpRS
CC1(C2CCN(CCCC(=O)O)CC2)CN(Cc2ccccc2)C(=O)O1 (stereo not given) | -0.2493 | -0.6387 | 2.596 | 0.2222 | 15.58 | -10.2
CC(C)CN1C(=O)C[C@@H]2[C@@H]1CCN2Cc1cccc(C#N)c1 | -1.897 | - | 0.25 | 14.32 | - | -3.127
N#Cc1ccccc1OCCN1CCn2c(nnc2C2CC2)C1 | -5.345 | 1.891 | 3.52 | 2.269 | -1.545 | 1.605
Cc1cc(C)n(CC2CCCN2Cc2cscn2)n1 (stereo not given) | -22.92 | 1.853 | 8.855 | -14.1 | -12.42 | 3.499
CC(NC(=O)CCOc1ccccc1Cl)c1nnc2n1CCC2 (stereo not given) | -16.83 | 9.937 | 2.966 | 5.97 | 27.26 | -2.426
CC(O)CN1CCC(CNCc2c[nH]nc2C(C)(C)C)CC1 (stereo not given) | 109.7 | 3.733 | -0.3559 | 14.65 | 0.2703 | -2.895
O=C(C1CCCCC1)N1C[C@H]2CNC[C@H]2C1 | -22.24 | - | 1.416 | -4.048 | - | -6.541
Cc1noc(C)c1C(=O)NCc1ccc(N2CCOC(C)C2)nc1 (stereo not given) | -7.691 | 7.493 | -1.173 | 12.59 | 9.799 | 1.098
CC(C)Oc1cc(N2CCCC(O)C2)nc(N)n1 (stereo not given) | 11 | 8.116 | 6.509 | 5.234 | 11.09 | 3.97
Cl.Cl.O=C(CN1CCN(CC(O)C2CC2)CC1)NCc1ccccc1Cl (stereo not given) | - | 4.648 | - | - | -10.69 | -
CC(C)c1cc(N2CCC(NS(C)(=O)=O)CC2)n2nccc2n1 | -8.488 | -15.82 | 5.556 | 4.345 | 6.508 | 1.944
Cc1nc(CN2C(=O)CCC23CCN(Cc2ccoc2)CC3)cs1 | -23.71 | - | 1.85 | -15.35 | - | -4.344
[H][C@]12CN(c3cnccn3)C[C@@]1(C(=O)O)CN(C1CCOCC1)C2 | - | 2.253 | - | - | 2.955 | -
COCCN(Cc1ccccn1)C(=O)Nc1cccnc1-n1cccn1 | -14.8 | -10.13 | 0.1988 | -9.556 | 8.469 | 8.49
CN(C)CCNC(=O)c1ccc2c(-c3nccs3)noc2c1 | -23.9 | 10.04 | -17.83 | -1.117 | 14.44 | -1.464
CCn1nc(C)c(C(C)NC(=O)c2cccc(NCC(=O)O)c2)c1C (stereo not given) | -21.81 | -6.268 | 6.452 | -1.254 | 13.45 | -1.975
CN1CCC(O)(CNC(=O)c2cc(COc3cccc(F)c3)[nH]n2)CC1 | -11.95 | 2.493 | -2.751 | -8.699 | 2.589 | 2.441
Cc1ccc2c(cnn2CCC(=O)NCc2csc(C)n2)c1 | -12.92 | 5.446 | -4.251 | -5.65 | 39.53 | 2.202
COC(=O)c1cccn1C1CCN(C(=O)c2c(C)noc2C)CC1 | -12.43 | -5.951 | 6.065 | -12.56 | -30.04 | 18.21
CCOCCCNC(=O)C1(C)CCC(=O)N1c1ccccc1OC (stereo not given) | -2.429 | -5.039 | 0.6588 | -4.278 | 5.242 | -0.1696
CNC(=O)CS(=O)(=O)C1CCN(S(=O)(=O)C2CC2)CC1 | -6.097 | -2.08 | 0.2132 | -1.823 | 16.47 | 1.069
CCC(C)N(Cc1ccc(C)cc1)Cc1c[nH]c(C)n1 (stereo not given) | -50.4 | 7.515 | -5.372 | -13.92 | 29.85 | -4.739
N#Cc1ccc(N2CCC3(CC2)COCCN3Cc2cccnc2)cc1 | -14.45 | - | - | -0.8812 | - | -0.9709
COCCN1CCN(Cc2ccc(OCc3nccn3C)cc2)CC1 | -10.18 | -8.099 | 4 | 4.385 | 39.11 | 1.947
O=C(c1ccco1)N1CCC2(CCC(=O)N2Cc2cccc(F)c2)CC1 | -6.471 | 10.88 | -22.01 | 4.668 | 32.42 | 0.229
CNc1nc(C)c(-c2nc(-c3c(C)ncc4c3CCNC4)no2)s1 | -6.141 | -5.425 | 3.831 | -5.328 | 0.7321 | 2.596
CC(=O)NCC1CCCN(C(=O)Cc2c(C)noc2C)C1 (stereo not given) | -8.444 | -0.04513 | 4.141 | 0.9622 | 14.55 | 2.754
Cn1cnc(S(=O)(=O)N2CCOCC2)c1Cl | -22.95 | -6.068 | 0 | 2.665 | 25.55 | -3.968
Cc1nc(C)n(CC2CN(CCn3cccn3)CCO2)n1 (stereo not given) | -21.68 | -0.2013 | 5.134 | 7.671 | -40.57 | -1.175
CNC(=O)[C@H]1C[C@@H]2CN(Cc3cccc(C)c3)C[C@H]1O2 | 2.934 | - | 4 | 4.181 | - | -
O=C(NCC1COCc2c(-c3ccncc3)nnn2C1)[C@H]1CCCO1.O=C(O)C(F)(F)F (stereo not given in full) | - | -3.945 | - | - | 32.06 | -
COc1ccc(C(NCc2cccc(C#N)c2)C(C)C)cc1 (stereo not given) | 11.18 | 20.21 | 0.1267 | 4.41 | 10.31 | -2.569
Cc1cc(C)n(CC2CCCN2C(=O)c2cccc3[nH]ncc23)n1 (stereo not given) | -7.858 | 3.985 | -2.024 | 9.405 | 15.33 | -13.51
COCc1nc(N(C)C)ncc1C(=O)NC(C)c1ccccc1 (stereo not given) | -9.26 | -1.953 | -0.6928 | -12.52 | -47.64 | -3.627
O=C(O)C(F)(F)F.O=C(O)C(F)(F)F.O=C(O)C(F)(F)F.[H][C@@]12CC(=O)N(Cc3ccncc3)[C@@]1([H])CCN2Cc1ccccn1 | - | -4.475 | - | - | 27.44 | -
C=C1c2ccccc2C(=O)N1CCC(=O)N1CCNC(=O)C1 | -4.408 | 3.387 | 1.33 | 23.98 | 10.89 | 3.931
Cc1nc(-c2ccsc2)ccc1C(=O)NCCN1CCN(C)CC1 | -7.061 | -4.838 | 6.971 | -35.26 | 18.14 | -5.712
Cc1cccc(N2CCC(N3CCCC4(CN(C)C(=O)O4)C3)CC2)c1C (stereo not given) | -19.3 | -6.757 | 1.222 | -3.378 | 27.03 | -0.6938
Clc1ccc(C(CNCc2ccncc2)n2cccn2)cc1 (stereo not given) | -6.258 | -29.19 | -1.151 | -13.44 | -0.9107 | 0.2859
O=C(NCCO)Nc1cccc(Cl)c1SC(F)F | -3.361 | 6.106 | -8.017 | 3.766 | -27.47 | 7.393
COCCC(=O)N1CC2(CCN(c3ccccc3)C2)C1 | -63.11 | -3.407 | -16.6 | 13.33 | -5.293 | 5.489
Cc1ncn(CCNC(=O)Nc2ccc(OC(F)(F)F)cc2)c(=O)c1C | -19.61 | -15.64 | 6.958 | -9.158 | -0.6119 | -2.592
O=C(O)C(F)(F)F.[H][C@@]12CN(Cc3ccco3)CCO[C@]1([H])CN(S(=O)(=O)CCC)C2 | - | 9.521 | - | - | 15.5 | -
O=C(CN1CCCS1(=O)=O)Nc1ccc(OC2CCCC2)cc1 | -24.49 | -6.325 | -2.008 | -8.264 | -25.17 | -1.911
CC(O)CNCc1ccc(OCc2ccc3c(c2)OCCO3)cc1.Cl (stereo not given) | - | -0.2514 | - | - | 32.6 | -

For reference, 3 entries once more:

SMILES,Pks13 thioesterase,Toxoplasma,CoaBC,ClpP1P2,Leishmania in macrophages,MtTrpRS
Cn1cnc(S(=O)(=O)N2CCOCC2)c1Cl,-22.95,-6.068,0,2.665,25.55,-3.968
O=C(C1CCCCC1)N1C[C@H]2CNC[C@H]2C1,-22.24,-,1.416,-4.048,-,-6.541
O=C(CN1CCCS1(=O)=O)Nc1ccc(OC2CCCC2)cc1,-24.49,-6.325,-2.008,-8.264,-25.17,-1.911